A negative result means that nothing was seen under these conditions. Where a protein sequence is shown, tags need not be part of it.

The source of these data is PMC6389858.

This series concerns the target T1, OxyR (UniProt P0ACQ4).
T1 sequence (looked up): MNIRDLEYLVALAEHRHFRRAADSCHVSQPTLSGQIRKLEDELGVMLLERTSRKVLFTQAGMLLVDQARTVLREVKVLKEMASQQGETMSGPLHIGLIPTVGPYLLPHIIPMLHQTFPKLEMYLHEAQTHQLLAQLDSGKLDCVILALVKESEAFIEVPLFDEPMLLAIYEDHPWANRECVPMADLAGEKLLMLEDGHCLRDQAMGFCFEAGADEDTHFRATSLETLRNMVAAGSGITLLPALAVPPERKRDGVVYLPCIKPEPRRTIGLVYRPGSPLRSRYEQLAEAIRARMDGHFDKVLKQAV
The experiment in a line: EMSA. Conditions: poly dI-dC, same conditions as PelaB-S, EMSA: 10 mM HEPES pH 7.3, 20 mM KCl, 1 mM MgCl2, 5% glycerol, NP-40, 25 C, 2 h, 6% DNA retardation gel, recombinant protein, residues 1-305, protein details: C-terminal His6, label: biotin 3' end, probe letters rebuilt from the primers and the genome.

In the case of “TCTCGTTCTCCATTTGCGTAAAACCTGTCACTAACTCCCCATGGACACACACAGTCCGACCTGAAGTTTACTCTCAAGAATCCCAATGTGTGGGATACCATCTTCTTCATAGACCTCCGTCACAGGGATAAAACCGAAACTCTGGTAGAAGTTTTGCAGATGCGCCTGCGCCCCGAGGTAAACAGGCTTATCAGGCCAGT (double strand) [PelaB-SM (mutated OxyR binding site 2)]”, the binding result is reported as “no binding”.
